According to PubChem BioAssay AID493204 (National Center for Advancing Translational Sciences (NCATS), 2011):
This list was built around the results that the source calls inconclusive (neither active nor inactive); the mix of calls is not that of the screen. A potency beside an inconclusive call is a rough fit, not a confirmed value. Activity calls are given as the source filed them. The call rests on the fitted dose curve; in most records, active means well fitted inhibition curve with a large enough effect; inconclusive means small, poorly fitted or top-dose-only effect; inactive means flat fitted curve, though single readings scatter.

The chains behind the UniProt entries cited, without tags or fusion partners. Where a name states a change or a piece, a line headed by the entry shows the natural chain unless it says otherwise.
UniProt Q9HAZ1: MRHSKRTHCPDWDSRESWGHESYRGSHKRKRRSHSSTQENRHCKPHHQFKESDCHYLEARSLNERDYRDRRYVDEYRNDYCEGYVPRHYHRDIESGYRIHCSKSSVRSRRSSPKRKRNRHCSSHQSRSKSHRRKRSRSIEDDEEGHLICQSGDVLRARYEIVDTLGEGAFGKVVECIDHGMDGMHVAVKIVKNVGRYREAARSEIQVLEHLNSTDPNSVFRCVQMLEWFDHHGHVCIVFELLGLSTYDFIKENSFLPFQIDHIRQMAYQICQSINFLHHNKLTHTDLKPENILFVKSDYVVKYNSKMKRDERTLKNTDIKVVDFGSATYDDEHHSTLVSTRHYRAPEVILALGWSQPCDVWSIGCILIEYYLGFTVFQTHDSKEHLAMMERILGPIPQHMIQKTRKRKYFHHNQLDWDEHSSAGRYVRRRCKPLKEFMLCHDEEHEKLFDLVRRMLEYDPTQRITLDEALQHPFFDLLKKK

Molecular target: Dual specificity protein kinase CLK4 (Homo sapiens) (UniProt Q9HAZ1)
Assay: Confirmation Assay for Inhibitors of CDC-like Kinase 4 (Kinase-Glo Assay): SAR round 2
Conditions: recombinant Clk4, Kinase-Glo ATP luminescence, 4.5 h; series mostly up to 76.9 µM; activity, negative = inhibition: at the top concentration
Protocol: NIH Molecular Libraries Probe Production Centers Network [MLPCN] NIH Chemical Genomics Center [NCGC] MLPCN Grant: 1R03MH084827-01 Assay Submitter (PI): Tom Misteli NCGC Assay Overview: Clk4 (Invitrogen, cat# PV3839) was assayed using ATP and the RS repeat peptide (AnaSpec cat # 61722) as substrates. Following the Clk4 reaction, the remaining ATP levels were detected using Promega Kinase-Glo technology wherein the remaining ATP from the kinase reaction is detected using Ultra-Glo luciferase and D-luciferin which generates a bioluminescence signal from the ATP. The positive control for the assay was TG003 (Sigma-Aldrich, cat# 300801-52-9) which has been described as an inhibitor of Clk 4[1].
NCGC Assay Protocol Summary: Two uL/well of substrate-buffer solution (100 uM RS peptide, 1 uM ATP, 25 mM Tris pH7.5, 10 mM MgCl2, 0.5 mM EGTA, 2.5 mM DTT, 0.01% Triton X-100 final concentration) was dispensed into 1536-well, assay plates (Greiner, solid white medium-binding plates) with Aurora Discovery BioRAPTR Flying Reagent Dispenser (FRD; Beckton-Dickenson). Using a Kalypsys pin tool equipped with a 1536-pin tool, 23 nL of compound solution was transferred to the assay plate. One uL/ well Clk4-buffer solution (25 nM Clk4, 25 mM Tris pH 7.5, 10 mM MgCl2, 0.5 mM EGTA, 2.5 mM DTT, 0.01% Triton X-100, final concentrations) was then added using the FRD yielding a total kinase reaction volume of 3 uL/ well. After 4.5 hours of room temperature incubation, 3 uL Kinase-Glo reagent was added for a final assay volume of 6 uL/ well. Luminescence was detected with the ViewLux plate reader (Perkin Elmer, Waltham, MA) after 5 min incubation using a 5 second exposure time and 2x binning.

SMILES	Potency	activity, negative = inhibition
Cn1cc(-c2nc3cnc(N4CCNCC4)nc3n(Cc3ccc(F)cc3)c2=O)c2ccccc21	inconclusive: 23.2 µM [inhibitor, partial curve, poor fit]	–
Cc1nc(CCN(C)c2ncnc3ccc(-c4ccc5c(c4)OCO5)cc23)cs1	active: 0.0823 µM	–
CS(=O)(=O)CCNCc1ccc(-c2ccc3ncnc(Nc4ccc(OCc5cccc(F)c5)c(Cl)c4)c3c2)o1	–	inactive: -10.4%
COc1cccc(Nc2ncc3nc(-c4cn(C)c5ccccc45)c(=O)n(CCC#N)c3n2)c1	inconclusive: 29.2 µM [inhibitor, partial curve]	–
